PubChem BioAssay (Tox21)
This list was built around the results that the source calls inconclusive (neither active nor inactive); the mix of calls is not that of the screen. The call rests on the fitted dose curve. Potencies of inconclusive entries are doubtful fits and often do not repeat.

Assay: p53 small molecule agonists, cell-based qHTS assay with human liver microsomes: qHTS cell viability counter screen (AID 1963579); further: nearly all actives have a fitted effect of over 45% in size
Conditions: p53RE-bla HCT-116 viability, ATP luminescence, 16 h, HLM; series mostly up to 66 µM
Procedure, shortened: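 In this multiplexed counter screen, the reporter plates were subsequently treated with CellTiter-Glo so that cell viability, reflected by luminescence, could be recorded for p53RE-bla cells dosed 16 h with compounds under microsomal activation (HLM and NADPH).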
Potency means the concentration at half of the fitted maximal effect.

Structure (SMILES)	Potency
OCc1c[nH]c2ccccc12	inconclusive: 3630 nM [rising, partial curve, poor fit]
COC(=O)Nc1nc2ccc(Sc3ccccc3)cc2[nH]1	inconclusive: 1120 nM [rising, full curve]
NC(=O)c1ccccc1O	inconclusive: 12600 nM [cytotoxic, single point]
Cc1ccc2nc(-c3ccc(N)cc3)sc2c1S(=O)(=O)O	inconclusive: 801 nM [cytotoxic, single point]
Cc1ccc(Cl)cc1	inconclusive: 1620 nM [rising, partial curve, poor fit]
OC(CCl)CCl	inconclusive: 51300 nM [cytotoxic, single point]
CN(C)[C@@H]1C(=O)C(C(N)=O)=C(O)[C@@]2(O)C(=O)C3=C(O)c4c(O)cccc4C[C@H]3C[C@@H]12	inconclusive: 793 nM [rising, partial curve]
Nc1ccc2c(O)cc(S(=O)(=O)O)cc2c1	inconclusive: 7250 nM [cytotoxic, single point]
